Experimental data reported in article PMC9492696.
No constants are given. Whether binding was seen depends on the method and setting. In cells and extracts the contact can be indirect. Some binding calls cover weakened binding; strength is not graded here. For some assays here: Where a sequence is shown, tags or fusion partners need not be part of it. Values belong to the molecule of their own block, whether it stands above or below them.

Protein sequences, listed by entry. Tags and fused reporters are not part of them. Residues count along the entry.
UniProt P05106, residues 27-788: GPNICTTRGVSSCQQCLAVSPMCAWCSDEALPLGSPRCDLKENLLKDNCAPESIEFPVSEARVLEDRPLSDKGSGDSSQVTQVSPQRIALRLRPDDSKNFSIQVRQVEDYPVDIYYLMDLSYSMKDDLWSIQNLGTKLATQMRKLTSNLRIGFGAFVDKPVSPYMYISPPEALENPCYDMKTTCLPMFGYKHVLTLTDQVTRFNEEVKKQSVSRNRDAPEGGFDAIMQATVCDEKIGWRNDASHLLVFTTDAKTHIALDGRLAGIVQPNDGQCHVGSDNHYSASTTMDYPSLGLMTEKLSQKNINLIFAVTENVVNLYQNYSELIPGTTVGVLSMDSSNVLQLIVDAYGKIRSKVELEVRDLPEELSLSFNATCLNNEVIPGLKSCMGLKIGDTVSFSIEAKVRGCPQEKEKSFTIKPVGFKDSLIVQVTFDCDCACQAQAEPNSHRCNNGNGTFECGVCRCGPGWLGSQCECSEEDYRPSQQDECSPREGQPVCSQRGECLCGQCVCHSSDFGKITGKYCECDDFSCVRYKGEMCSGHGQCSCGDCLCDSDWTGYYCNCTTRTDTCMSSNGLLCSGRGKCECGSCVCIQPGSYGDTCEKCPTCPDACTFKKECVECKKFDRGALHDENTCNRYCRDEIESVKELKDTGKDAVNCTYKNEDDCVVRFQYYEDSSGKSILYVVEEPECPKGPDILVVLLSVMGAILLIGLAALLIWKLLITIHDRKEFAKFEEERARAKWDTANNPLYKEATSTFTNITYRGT

Experiments:
[1] = target: T1, GST-MIIP (migration and invasion inhibitory protein) (human) (UniProt Q5JXC2); assay: pull-down; GST, GST-MIIP or GST-MIIP^ΔRGD on GST agarose beads incubated overnight at 4 °C with lysates of MDA-MB-231 cells; washed three times with PBS; western blot with antibodies against ITGB3 and ITGAV; only the target purified
T1 sequence: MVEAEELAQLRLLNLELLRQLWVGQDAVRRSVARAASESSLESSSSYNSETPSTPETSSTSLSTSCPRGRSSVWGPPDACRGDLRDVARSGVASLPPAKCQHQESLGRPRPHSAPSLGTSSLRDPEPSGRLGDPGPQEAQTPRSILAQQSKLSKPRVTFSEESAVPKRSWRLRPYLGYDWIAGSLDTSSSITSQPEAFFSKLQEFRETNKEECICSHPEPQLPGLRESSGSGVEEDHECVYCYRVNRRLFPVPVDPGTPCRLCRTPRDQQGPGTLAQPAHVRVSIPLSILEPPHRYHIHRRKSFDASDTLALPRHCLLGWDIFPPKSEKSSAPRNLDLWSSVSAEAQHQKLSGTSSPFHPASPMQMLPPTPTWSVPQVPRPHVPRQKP

[2] = target: ITGB3 expressed from pcDNA3.1-beta-3 (human) (UniProt P05106); assay: co-IP; 293T cells; NP40 lysis buffer; antibody against c-Myc tag on Protein G magnetic beads, lysate added overnight at 4 °C; western blot

binding [1]: binds
Molecule: Integrin β3 (ITGB3), endogenous in MDA-MB-231 cells (from UniProt P05106 27-788) (receptor)

binding [2]: binds
B1: MIIP expressed from pcDNA3.0-MIIP (protein, UniProt Q5JXC2 1-388)
chain: T1 sequence
